Patent publication US20120095019A1 (priority 2010, published 2012)
Where “and” joins values, the source holds several entries; their conditions need not be identical. Equal entries are not always repeated.

Test: Clinical trial in atrial fibrillation (SPAF) patients: betrixaban plasma concentrations with or without concomitant amiodarone

## CCCCc1oc2ccccc2c1C(=O)c1cc(I)c(OCCN(CC)CC)c(I)c1 [amiodarone]
Week 4, individual patient, betrixaban dose per day 80 mg
  Plasma Concentration of amiodarone: 542 ng/mL
Week 4, individual patients, betrixaban dose per day 40 mg
  Plasma Concentration of amiodarone: 891 ng/mL and 620 ng/mL and 691 ng/mL and 671 ng/mL
Week 4, individual patients, betrixaban dose per day 60 mg
  Plasma Concentration of amiodarone: 555 ng/mL and 1349 ng/mL and 968 ng/mL and 432 ng/mL and 607 ng/mL
